No constants are given. Whether binding was seen depends on the method and setting. In cells and extracts the contact can be indirect. A result given as binding can be weak or reduced; the word gives no strength.

The target of the assay is β-arrestin (human (endogenous in OSCC patient-derived CAFs)). The experiment in a line: co-IP; endogenous proteins; IP antibody (anti-ERK5, anti-Gαq or anti-β-arrestin) or IgG isotype on protein A/G magnetic beads, 1 h at room temperature with lysates of CAFs with sa-NC or sa-OXTR; beads washed five times with lysis buffer; immunoblot.

B1: MEK5 (enzyme, UniProt Q13163 1-448)
chain: MLWLALGPFPAMENQVLVIRIKIPNSGAVDWTVHSGPQLLFRDVLDVIGQVLPEATTTAFEYEDEDGDRITVRSDEEMKAMLSYYYSTVMEQQVNGQLIEPLQIFPRACKPPGERNIHGLKVNTRAGPSQHSSPAVSDSLPSNSLKKSSAELKKILANGQMNEQDIRYRDTLGHGNGGTVYKAYHVPSGKILAVKVILLDITLELQKQIMSELEILYKCDSSYIIGFYGAFFVENRISICTEFMDGGSLDVYRKMPEHVLGRIAVAVVKGLTYLWSLKILHRDVKPSNMLVNTRGQVKLCDFGVSTQLVNSIAKTYVGTNAYMAPERISGEQYGIHSDVWSLGISFMELALGRFPYPQIQKNQGSLMPLQLLQCIVDEDSPVLPVGEFSEPFVHFITQCMRKQPKERPAPEELMGHPFIVQFNDGNAAVVSMWVCRALEERRSQQGPP
Consider B1, for which the binding entry is on record as “binds weakly”.

B2: protein kinase C (PKC)ζ (enzyme, UniProt Q05513 1-592)
chain: MPSRTGPKMEGSGGRVRLKAHYGGDIFITSVDAATTFEELCEEVRDMCRLHQQHPLTLKWVDSEGDPCTVSSQMELEEAFRLARQCRDEGLIIHVFPSTPEQPGLPCPGEDKSIYRRGARRWRKLYRANGHLFQAKRFNRRAYCGQCSERIWGLARQGYRCINCKLLVHKRCHGLVPLTCRKHMDSVMPSQEPPVDDKNEDADLPSEETDGIAYISSSRKHDSIKDDSEDLKPVIDGMDGIKISQGLGLQDFDLIRVIGRGSYAKVLLVRLKKNDQIYAMKVVKKELVHDDEDIDWVQTEKHVFEQASSNPFLVGLHSCFQTTSRLFLVIEYVNGGDLMFHMQRQRKLPEEHARFYAAEICIALNFLHERGIIYRDLKLDNVLLDADGHIKLTDYGMCKEGLGPGDTTSTFCGTPNYIAPEILRGEEYGFSVDWWALGVLMFEMMAGRSPFDIITDNPDMNTEDYLFQVILEKPIRIPRFLSVKASHVLKGFLNKDPKERLGCRPQTGFSDIKSHAFFRSIDWDLLEKKQALPPFQPQITDDYGLDNFDTQFTSEPVQLTPDDEDAIKRIDQSEFEGFEYINPLLLSTEESV
Regarding B2, the binding result was “binds weakly”.

Values taken from paper PMC9433374.
